# Assay results reported in the supplement of paper PMC8728848.
# The other results are listed elsewhere or left out.
# B1: PX9961Q-bfa-504-27-504 (Bacteroides fragilis) (protein)
# chain: NDWLDRKPADGIPSEDAITNYNDALTARTGMYDGIQGNSNATSYYGARMFYYGDVRADDMQARTQGMRSSSCYEMLYTVDDAPNMWNIPYNVIRRANRLIEAINEKKVTDATEAQIGKIYSEALVVRALVHFDLVRIYGMPYTADNGASLGVPVIVKPLERNDLPSRNTVAEVYTQVITDLTDAINSGYLAKDQTPGYINEWAAKALLTRVYLTKGDNENALKVAEDIITNSPYKLWTNEEYVNAWYKSNGAHTNEMIFEVVNASNDDWTDRNGIAYLLNENGYADAIVTKSFMNMLSQDPKDVRIGMVLPAQYDKDLQEEYGDAKIFINKFPADKDDVGEMRLNNLPLLRLSEVYLSAAEAAAKLGGHQDKAAKYLNEIVQRANPEAKAISEADATVERIILERRKEMIGEGQRYFDALRNNETIVRYKDEGDKGYHYSLIKESQSFDRTYFRAILPIPVDETNVNPNLRAQQNPGY
# Experiments:
# Assay in all cases: glycan array binding signal (z-score within array); higher = stronger binding
# Details in all cases: glycan notation: IUPAC condensed, linker removed
# [1] = target: Fuc(a1-2)Gal
# Summary of the method: (§1)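 Columns mapping to the same glycan were averaged after glycan names were converted to IUPAC-condensed notation. The data come from 3228 arrays in the Consortium for Functional Glycomics database, limited to those with an available protein sequence. Binding is reported as a within-array Z-score averaged across arrays of one protein sequence and across linkers.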
# [2] = target: Fuc(a1-2)Gal(b1-3)GalNAc
# Summary of the method: as §1
# [3] = target: Fuc(a1-2)Gal(b1-3)GalNAc(a1-3)[Fuc(a1-2)]Gal(b1-4)Glc
# Summary of the method: as §1
# [4] = target: Fuc(a1-2)Gal(b1-3)GalNAc(a1-3)[Fuc(a1-2)]Gal(b1-4)GlcNAc
# Summary of the method: as §1
# [5] = target: Fuc(a1-2)Gal(b1-3)GalNAc(b1-3)Gal
# Summary of the method: as §1
# [6] = target: Fuc(a1-2)Gal(b1-3)GalNAc(b1-3)Gal(a1-4)Gal(b1-4)Glc
# Summary of the method: as §1
# [7] = target: Fuc(a1-2)Gal(b1-3)GalNAc(b1-4)[Neu5Ac(a2-3)]Gal(b1-4)Glc
# Summary of the method: as §1
# [8] = target: Fuc(a1-2)Gal(b1-3)GlcNAc
# Summary of the method: as §1
# [9] = target: Fuc(a1-2)Gal(b1-3)GlcNAc(b1-2)Man(a1-3)[Fuc(a1-2)Gal(b1-3)GlcNAc(b1-2)Man(a1-6)]Man(b1-4)GlcNAc(b1-4)GlcNAc
# Summary of the method: as §1
# [10] = target: Fuc(a1-2)Gal(b1-3)GlcNAc(b1-2)Man(a1-3)[Fuc(a1-2)Gal(b1-3)GlcNAc(b1-2)Man(a1-6)]Man(b1-4)GlcNAc(b1-4)[Fuc(a1-6)]GlcNAc
# Summary of the method: as §1
# [11] = target: Fuc(a1-2)Gal(b1-3)GlcNAc(b1-3)Gal(b1-4)Glc
# Summary of the method: as §1
# [12] = target: Fuc(a1-2)Gal(b1-3)GlcNAc(b1-3)GalNAc
# Summary of the method: as §1
# [13] = target: Fuc(a1-2)Gal(b1-3)GlcNAc(b1-3)[Fuc(a1-2)Gal(b1-3)GlcNAc(b1-6)]GalNAc
# Summary of the method: as §1
# [14] = target: Fuc(a1-2)Gal(b1-3)GlcNAc(b1-3)[Gal(b1-4)GlcNAc(b1-6)]Gal(b1-4)Glc
# Summary of the method: as §1
# [15] = target: Fuc(a1-2)Gal(b1-3)GlcNAc(b1-3)[Neu5Ac(a2-6)Gal(b1-4)GlcNAc(b1-6)]Gal(b1-4)Glc
# Summary of the method: as §1
# [16] = target: Fuc(a1-2)Gal(b1-3)GlcNAc6S
# Summary of the method: as §1
# [17] = target: Fuc(a1-2)Gal(b1-3)[Fuc(a1-4)]GlcNAc
# Summary of the method: as §1
# [18] = target: Fuc(a1-2)Gal(b1-3)[Fuc(a1-4)]GlcNAc(b1-2)Man(a1-3)[Fuc(a1-2)Gal(b1-3)[Fuc(a1-4)]GlcNAc(b1-2)Man(a1-3)]Man(b1-4)GlcNAc(b1-4)GlcNAc
# Summary of the method: as §1
# [19] = target: Fuc(a1-2)Gal(b1-3)[Fuc(a1-4)]GlcNAc(b1-2)Man(a1-3)[Fuc(a1-2)Gal(b1-3)[Fuc(a1-4)]GlcNAc(b1-2)Man(a1-6)]Man(b1-4)GlcNAc(b1-4)[Fuc(a1-6)]GlcNAc(b1-4)[Fuc(a1-6)]GlcNAc
# Summary of the method: as §1
# [20] = target: Fuc(a1-2)Gal(b1-3)[Fuc(a1-4)]GlcNAc(b1-3)[Fuc(a1-3)[Gal(b1-4)]GlcNAc(b1-6)]Gal(b1-4)Glc
# Summary of the method: as §1
# [21] = target: Fuc(a1-2)Gal(b1-3)[Fuc(a1-4)]GlcNAc(b1-3)[Gal(b1-4)GlcNAc(b1-6)]Gal(b1-4)Glc
# Summary of the method: as §1
# [22] = target: Fuc(a1-2)Gal(b1-4)Glc
# Summary of the method: as §1
# [23] = target: Fuc(a1-2)Gal(b1-4)Glc6S
# Summary of the method: as §1
# [24] = target: Fuc(a1-2)Gal(b1-4)GlcNAc
# Summary of the method: as §1
# [25] = target: Fuc(a1-2)Gal(b1-4)GlcNAc(b1-2)Man
# Summary of the method: as §1
# [26] = target: Fuc(a1-2)Gal(b1-4)GlcNAc(b1-2)Man(a1-3)[Fuc(a1-2)Gal(b1-4)GlcNAc(b1-2)Man(a1-6)]Man(b1-4)GlcNAc(b1-4)GlcNAc
# Summary of the method: as §1
# [27] = target: Fuc(a1-2)Gal(b1-4)GlcNAc(b1-2)Man(a1-3)[Fuc(a1-2)Gal(b1-4)GlcNAc(b1-2)Man(a1-6)]Man(b1-4)GlcNAc(b1-4)[Fuc(a1-6)]GlcNAc
# Summary of the method: as §1
# [28] = target: Fuc(a1-2)Gal(b1-4)GlcNAc(b1-2)[Fuc(a1-2)Gal(b1-4)GlcNAc(b1-4)]Man(a1-3)[Fuc(a1-2)Gal(b1-4)GlcNAc(b1-2)Man(a1-6)]Man(b1-4)GlcNAc(b1-4)GlcNAc
# Summary of the method: as §1
# [29] = target: Fuc(a1-2)Gal(b1-4)GlcNAc(b1-3)Gal(b1-4)GlcNAc
# Summary of the method: as §1
# [30] = target: Fuc(a1-2)Gal(b1-4)GlcNAc(b1-3)Gal(b1-4)GlcNAc(b1-2)Man(a1-3)[Fuc(a1-2)Gal(b1-4)GlcNAc(b1-3)Gal(b1-4)GlcNAc(b1-2)Man(a1-6)]Man(b1-4)GlcNAc(b1-4)GlcNAc
# Summary of the method: as §1
binder,measurement,setting,value
B1,glycan array binding signal (z-score),[1],-0.522
same,glycan array binding signal (z-score),[2],-0.893
same,glycan array binding signal (z-score),[3],-0.312
same,glycan array binding signal (z-score),[4],-0.275
same,glycan array binding signal (z-score),[5],0.241
same,glycan array binding signal (z-score),[6],-1.11
same,glycan array binding signal (z-score),[7],0.477
same,glycan array binding signal (z-score),[8],-0.986
same,glycan array binding signal (z-score),[9],2.69
same,glycan array binding signal (z-score),[10],-0.241
same,glycan array binding signal (z-score),[11],0.015
same,glycan array binding signal (z-score),[12],-0.855
same,glycan array binding signal (z-score),[13],1.16
same,glycan array binding signal (z-score),[14],-0.322
same,glycan array binding signal (z-score),[15],-0.282
same,glycan array binding signal (z-score),[16],-0.483
same,glycan array binding signal (z-score),[17],-0.823
same,glycan array binding signal (z-score),[18],1.35
same,glycan array binding signal (z-score),[19],0.399
same,glycan array binding signal (z-score),[20],-0.358
same,glycan array binding signal (z-score),[21],1.29
same,glycan array binding signal (z-score),[22],-0.701
same,glycan array binding signal (z-score),[23],1.62
same,glycan array binding signal (z-score),[24],-0.588
same,glycan array binding signal (z-score),[25],-1.39
same,glycan array binding signal (z-score),[26],0.667
same,glycan array binding signal (z-score),[27],1.1
same,glycan array binding signal (z-score),[28],0.922
same,glycan array binding signal (z-score),[29],0.428
same,glycan array binding signal (z-score),[30],-0.411

# Two records picked at random from the list so far, as already listed:
binder,measurement,setting,value
B1,glycan array binding signal (z-score),[24],-0.588
same,glycan array binding signal (z-score),[5],0.241
